Results: article PMC3599175
No constants are given. Whether binding was seen depends on the method and setting. Binding seen in cells or lysates may run through a third protein. Some binding calls cover weakened binding; strength is not graded here.

The chains behind the UniProt entries cited, without tags or fusion partners. Residues count along the entry.
UniProt P35570: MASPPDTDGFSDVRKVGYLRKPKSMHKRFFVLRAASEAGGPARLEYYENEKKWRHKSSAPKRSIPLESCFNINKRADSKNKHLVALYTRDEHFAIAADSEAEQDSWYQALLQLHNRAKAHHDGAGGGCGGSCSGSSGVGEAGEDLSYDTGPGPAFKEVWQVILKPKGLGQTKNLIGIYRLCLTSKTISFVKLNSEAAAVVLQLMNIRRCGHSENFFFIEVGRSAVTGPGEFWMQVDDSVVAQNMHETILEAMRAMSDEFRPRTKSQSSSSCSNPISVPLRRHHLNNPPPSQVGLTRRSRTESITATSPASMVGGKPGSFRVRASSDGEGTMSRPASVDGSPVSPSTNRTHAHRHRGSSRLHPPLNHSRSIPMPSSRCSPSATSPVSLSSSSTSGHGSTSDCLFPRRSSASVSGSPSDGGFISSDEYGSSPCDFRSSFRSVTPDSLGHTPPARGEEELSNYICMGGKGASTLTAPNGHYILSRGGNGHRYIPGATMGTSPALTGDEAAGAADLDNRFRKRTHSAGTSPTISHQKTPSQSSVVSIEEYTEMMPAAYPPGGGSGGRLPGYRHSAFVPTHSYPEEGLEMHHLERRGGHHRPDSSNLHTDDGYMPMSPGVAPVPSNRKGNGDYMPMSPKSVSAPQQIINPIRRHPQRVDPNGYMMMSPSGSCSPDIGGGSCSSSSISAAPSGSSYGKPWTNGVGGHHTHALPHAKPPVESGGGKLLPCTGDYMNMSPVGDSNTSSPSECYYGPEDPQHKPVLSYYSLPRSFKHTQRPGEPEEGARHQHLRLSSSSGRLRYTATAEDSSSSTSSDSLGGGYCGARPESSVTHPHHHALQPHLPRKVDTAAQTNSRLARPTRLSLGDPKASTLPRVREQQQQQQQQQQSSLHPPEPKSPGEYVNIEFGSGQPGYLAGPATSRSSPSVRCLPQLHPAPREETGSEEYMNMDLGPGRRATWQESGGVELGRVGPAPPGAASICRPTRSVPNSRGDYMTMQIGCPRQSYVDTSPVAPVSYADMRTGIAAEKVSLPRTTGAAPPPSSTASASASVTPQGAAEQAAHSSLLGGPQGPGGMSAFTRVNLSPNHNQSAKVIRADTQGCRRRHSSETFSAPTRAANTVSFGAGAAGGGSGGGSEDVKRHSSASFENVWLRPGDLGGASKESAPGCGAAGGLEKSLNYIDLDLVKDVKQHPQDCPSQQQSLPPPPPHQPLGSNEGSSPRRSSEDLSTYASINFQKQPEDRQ
UniProt P15127, residues 764-1383: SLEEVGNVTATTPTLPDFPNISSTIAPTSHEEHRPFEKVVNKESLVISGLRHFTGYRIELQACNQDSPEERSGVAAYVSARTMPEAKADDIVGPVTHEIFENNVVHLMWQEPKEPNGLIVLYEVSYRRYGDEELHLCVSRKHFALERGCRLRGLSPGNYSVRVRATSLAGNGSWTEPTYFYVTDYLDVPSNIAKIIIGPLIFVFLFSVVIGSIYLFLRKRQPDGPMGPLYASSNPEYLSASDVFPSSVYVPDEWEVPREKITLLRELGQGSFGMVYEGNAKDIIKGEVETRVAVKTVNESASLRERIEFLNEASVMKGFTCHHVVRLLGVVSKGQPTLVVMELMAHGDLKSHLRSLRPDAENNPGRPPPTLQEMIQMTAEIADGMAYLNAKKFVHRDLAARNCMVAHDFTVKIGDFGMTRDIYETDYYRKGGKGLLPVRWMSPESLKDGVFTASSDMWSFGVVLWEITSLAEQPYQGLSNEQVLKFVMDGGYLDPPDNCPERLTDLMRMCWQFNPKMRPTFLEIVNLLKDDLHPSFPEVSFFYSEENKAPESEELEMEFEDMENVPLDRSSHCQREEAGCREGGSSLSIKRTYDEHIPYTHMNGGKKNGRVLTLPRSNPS

Assays:
[1] = biological target: insulin receptor substrate 1 (rat (endogenous in rat liver)) (UniProt P35570); experiment: co-IP; liver extracts (1% Triton X-100, 100 mM Tris pH 7.4, 4°C) of young, old and exercised old rats (16 h after acute swimming); IP with anti-IRβ or anti-IRS-1, protein A-Sepharose, blot with anti-PTP1B
[2] = biological target: insulin receptor β subunit (rat (endogenous in rat liver)) (UniProt P15127); experiment: as above

- binding [1]: binds
- binding [2]: binds
B1: protein-tyrosine phosphatase 1B (enzyme, UniProt P20417 1-432)
chain: MEMEKEFEQIDKAGNWAAIYQDIRHEASDFPCRIAKLPKNKNRNRYRDVSPFDHSRIKLHQEDNDYINASLIKMEEAQRSYILTQGPLPNTCGHFWEMVWEQKSRGVVMLNRIMEKGSLKCAQYWPQKEEKEMVFDDTNLKLTLISEDVKSYYTVRQLELENLATQEAREILHFHYTTWPDFGVPESPASFLNFLFKVRESGSLSPEHGPIVVHCSAGIGRSGTFCLADTCLLLMDKRKDPSSVDIKKVLLEMRRFRMGLIQTADQLRFSYLAVIEGAKFIMGDSSVQDQWKELSHEDLEPPPEHVPPPPRPPKRTLEPHNGKCKELFSNHQWVSEESCEDEDILAREESRAPSIAVHSMSSMSQDTEVRKRMVGGGLQSAQASVPTEEELSPTEEEQKAHRPVHWKPFLVNVCMATALATGAYLCYRVCFH
